Source: the supplement of paper PMC6411743
± gives the standard deviation of the averaged measurements. The list shows a part of the results, in another mix than the full data.

Protein sequences, listed by entry. Tags and fused reporters are not part of them. Lines headed by an entry give the natural chain unless they say otherwise; changes in a name come on top.
UniProt Q8NBX0: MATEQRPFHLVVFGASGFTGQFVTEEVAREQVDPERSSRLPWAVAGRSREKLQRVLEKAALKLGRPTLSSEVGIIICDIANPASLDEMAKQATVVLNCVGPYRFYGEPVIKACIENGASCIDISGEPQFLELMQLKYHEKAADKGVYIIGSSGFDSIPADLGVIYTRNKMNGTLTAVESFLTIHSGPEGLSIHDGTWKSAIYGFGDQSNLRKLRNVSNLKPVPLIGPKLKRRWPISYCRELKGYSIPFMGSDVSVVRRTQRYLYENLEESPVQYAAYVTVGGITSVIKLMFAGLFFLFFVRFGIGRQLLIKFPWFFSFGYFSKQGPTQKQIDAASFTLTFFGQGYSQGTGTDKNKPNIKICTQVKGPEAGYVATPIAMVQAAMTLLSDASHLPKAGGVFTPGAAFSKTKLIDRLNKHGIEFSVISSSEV
UniProt Q8WU76: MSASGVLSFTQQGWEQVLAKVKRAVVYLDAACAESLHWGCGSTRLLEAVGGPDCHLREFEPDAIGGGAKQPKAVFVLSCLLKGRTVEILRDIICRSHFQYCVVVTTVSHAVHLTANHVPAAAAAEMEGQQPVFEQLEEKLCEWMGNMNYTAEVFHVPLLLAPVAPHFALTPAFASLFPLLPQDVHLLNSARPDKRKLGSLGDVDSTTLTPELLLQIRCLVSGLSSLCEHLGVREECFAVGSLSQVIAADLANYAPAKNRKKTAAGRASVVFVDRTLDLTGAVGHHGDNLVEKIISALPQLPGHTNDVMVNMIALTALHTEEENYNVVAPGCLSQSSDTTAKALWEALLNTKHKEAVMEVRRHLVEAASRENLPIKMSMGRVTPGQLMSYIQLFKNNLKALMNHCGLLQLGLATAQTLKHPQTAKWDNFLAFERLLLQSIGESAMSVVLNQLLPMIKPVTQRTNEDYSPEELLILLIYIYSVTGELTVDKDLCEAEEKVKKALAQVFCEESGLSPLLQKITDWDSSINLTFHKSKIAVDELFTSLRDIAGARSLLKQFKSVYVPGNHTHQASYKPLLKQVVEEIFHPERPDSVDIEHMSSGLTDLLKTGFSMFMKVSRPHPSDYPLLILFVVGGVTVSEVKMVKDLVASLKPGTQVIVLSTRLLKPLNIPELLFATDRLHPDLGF
UniProt Q92734, whole entry: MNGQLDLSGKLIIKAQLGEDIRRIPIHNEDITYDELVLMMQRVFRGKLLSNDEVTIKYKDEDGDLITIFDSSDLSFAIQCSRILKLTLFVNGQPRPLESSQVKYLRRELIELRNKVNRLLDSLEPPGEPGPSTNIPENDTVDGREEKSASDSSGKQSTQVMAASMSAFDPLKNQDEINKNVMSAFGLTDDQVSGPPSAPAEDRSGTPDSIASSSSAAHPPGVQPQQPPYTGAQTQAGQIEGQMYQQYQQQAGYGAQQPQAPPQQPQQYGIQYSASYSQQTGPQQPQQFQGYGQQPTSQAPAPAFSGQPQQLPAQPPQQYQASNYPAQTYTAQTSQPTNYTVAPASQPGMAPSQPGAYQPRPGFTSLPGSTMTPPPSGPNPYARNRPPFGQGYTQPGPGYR
UniProt Q8TD16, whole entry: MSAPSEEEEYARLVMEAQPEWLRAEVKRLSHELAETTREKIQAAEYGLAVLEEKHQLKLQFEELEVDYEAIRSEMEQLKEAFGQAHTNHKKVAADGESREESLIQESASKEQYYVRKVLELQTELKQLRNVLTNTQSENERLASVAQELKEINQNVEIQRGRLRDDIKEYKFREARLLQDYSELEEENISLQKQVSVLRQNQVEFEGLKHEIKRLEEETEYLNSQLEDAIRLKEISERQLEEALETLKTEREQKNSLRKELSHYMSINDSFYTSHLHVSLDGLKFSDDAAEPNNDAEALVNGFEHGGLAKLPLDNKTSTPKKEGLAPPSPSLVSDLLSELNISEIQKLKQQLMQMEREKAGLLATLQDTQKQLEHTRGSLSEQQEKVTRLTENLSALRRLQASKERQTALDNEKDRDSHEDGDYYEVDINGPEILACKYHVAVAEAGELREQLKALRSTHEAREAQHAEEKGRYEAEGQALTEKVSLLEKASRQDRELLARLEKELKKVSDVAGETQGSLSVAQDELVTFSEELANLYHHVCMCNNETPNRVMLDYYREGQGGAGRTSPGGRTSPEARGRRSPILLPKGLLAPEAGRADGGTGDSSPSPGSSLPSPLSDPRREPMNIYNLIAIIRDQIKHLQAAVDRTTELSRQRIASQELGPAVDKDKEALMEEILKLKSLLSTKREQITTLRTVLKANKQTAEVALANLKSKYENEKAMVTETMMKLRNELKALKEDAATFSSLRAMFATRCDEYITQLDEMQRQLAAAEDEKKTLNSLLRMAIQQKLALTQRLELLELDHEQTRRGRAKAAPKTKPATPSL
UniProt Q8NEZ5: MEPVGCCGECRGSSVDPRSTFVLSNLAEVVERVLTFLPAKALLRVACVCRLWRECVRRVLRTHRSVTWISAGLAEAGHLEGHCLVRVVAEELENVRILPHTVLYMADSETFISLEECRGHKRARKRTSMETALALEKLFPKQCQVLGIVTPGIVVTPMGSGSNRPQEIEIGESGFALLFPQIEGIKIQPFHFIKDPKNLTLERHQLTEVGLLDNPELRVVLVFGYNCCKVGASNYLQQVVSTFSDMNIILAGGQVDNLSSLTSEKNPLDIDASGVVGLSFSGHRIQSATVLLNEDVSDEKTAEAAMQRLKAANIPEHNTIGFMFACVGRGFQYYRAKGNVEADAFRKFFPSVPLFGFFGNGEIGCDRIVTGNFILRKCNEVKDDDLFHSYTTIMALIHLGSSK
UniProt Q8NHV4, whole entry: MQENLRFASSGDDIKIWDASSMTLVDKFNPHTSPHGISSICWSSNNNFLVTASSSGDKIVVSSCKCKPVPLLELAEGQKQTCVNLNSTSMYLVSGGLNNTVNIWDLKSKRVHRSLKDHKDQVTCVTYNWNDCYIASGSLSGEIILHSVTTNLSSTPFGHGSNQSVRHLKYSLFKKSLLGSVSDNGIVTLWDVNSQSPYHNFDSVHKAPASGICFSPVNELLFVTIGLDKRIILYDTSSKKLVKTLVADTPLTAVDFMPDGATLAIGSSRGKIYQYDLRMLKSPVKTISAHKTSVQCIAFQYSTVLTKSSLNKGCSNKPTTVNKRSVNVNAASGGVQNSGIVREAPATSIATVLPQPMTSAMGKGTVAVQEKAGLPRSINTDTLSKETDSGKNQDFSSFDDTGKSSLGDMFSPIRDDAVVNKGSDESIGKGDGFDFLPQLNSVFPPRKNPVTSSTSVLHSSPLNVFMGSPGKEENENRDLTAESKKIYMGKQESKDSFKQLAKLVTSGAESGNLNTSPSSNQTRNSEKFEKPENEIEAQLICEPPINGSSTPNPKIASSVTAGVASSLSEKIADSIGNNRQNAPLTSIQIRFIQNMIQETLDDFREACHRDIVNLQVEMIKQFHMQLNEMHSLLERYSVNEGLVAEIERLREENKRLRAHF
UniProt Q8WUD1: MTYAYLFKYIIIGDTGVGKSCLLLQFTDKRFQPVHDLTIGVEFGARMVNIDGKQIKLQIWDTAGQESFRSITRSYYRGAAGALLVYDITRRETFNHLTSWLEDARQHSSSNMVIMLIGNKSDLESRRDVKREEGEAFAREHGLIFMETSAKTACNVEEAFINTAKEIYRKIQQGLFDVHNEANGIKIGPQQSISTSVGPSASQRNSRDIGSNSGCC
UniProt Q8WZA0: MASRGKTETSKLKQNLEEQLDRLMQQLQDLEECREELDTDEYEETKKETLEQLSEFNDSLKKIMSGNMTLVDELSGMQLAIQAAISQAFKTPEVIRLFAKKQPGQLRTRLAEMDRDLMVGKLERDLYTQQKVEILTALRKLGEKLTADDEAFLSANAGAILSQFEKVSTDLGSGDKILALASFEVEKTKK
UniProt Q8TCZ2: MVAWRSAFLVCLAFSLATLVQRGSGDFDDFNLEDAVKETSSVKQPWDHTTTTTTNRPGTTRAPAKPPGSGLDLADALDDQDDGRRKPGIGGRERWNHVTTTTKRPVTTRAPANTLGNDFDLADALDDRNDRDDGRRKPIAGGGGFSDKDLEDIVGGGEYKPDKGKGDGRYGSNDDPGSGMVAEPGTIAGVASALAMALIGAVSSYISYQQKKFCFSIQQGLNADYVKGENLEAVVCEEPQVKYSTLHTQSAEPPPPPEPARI
UniProt Q8WV93: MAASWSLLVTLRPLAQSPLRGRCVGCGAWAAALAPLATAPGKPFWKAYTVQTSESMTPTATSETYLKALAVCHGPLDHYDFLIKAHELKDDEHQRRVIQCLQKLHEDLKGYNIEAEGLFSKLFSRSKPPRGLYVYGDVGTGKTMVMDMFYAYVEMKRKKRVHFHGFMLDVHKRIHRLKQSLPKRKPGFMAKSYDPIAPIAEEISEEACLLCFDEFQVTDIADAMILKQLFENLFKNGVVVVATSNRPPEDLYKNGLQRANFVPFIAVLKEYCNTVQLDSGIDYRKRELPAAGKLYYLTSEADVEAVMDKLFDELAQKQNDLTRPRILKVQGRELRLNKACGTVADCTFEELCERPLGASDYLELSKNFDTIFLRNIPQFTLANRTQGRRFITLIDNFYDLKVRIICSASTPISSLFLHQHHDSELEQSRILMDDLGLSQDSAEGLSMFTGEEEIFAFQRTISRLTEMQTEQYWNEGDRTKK
UniProt Q92576, whole entry: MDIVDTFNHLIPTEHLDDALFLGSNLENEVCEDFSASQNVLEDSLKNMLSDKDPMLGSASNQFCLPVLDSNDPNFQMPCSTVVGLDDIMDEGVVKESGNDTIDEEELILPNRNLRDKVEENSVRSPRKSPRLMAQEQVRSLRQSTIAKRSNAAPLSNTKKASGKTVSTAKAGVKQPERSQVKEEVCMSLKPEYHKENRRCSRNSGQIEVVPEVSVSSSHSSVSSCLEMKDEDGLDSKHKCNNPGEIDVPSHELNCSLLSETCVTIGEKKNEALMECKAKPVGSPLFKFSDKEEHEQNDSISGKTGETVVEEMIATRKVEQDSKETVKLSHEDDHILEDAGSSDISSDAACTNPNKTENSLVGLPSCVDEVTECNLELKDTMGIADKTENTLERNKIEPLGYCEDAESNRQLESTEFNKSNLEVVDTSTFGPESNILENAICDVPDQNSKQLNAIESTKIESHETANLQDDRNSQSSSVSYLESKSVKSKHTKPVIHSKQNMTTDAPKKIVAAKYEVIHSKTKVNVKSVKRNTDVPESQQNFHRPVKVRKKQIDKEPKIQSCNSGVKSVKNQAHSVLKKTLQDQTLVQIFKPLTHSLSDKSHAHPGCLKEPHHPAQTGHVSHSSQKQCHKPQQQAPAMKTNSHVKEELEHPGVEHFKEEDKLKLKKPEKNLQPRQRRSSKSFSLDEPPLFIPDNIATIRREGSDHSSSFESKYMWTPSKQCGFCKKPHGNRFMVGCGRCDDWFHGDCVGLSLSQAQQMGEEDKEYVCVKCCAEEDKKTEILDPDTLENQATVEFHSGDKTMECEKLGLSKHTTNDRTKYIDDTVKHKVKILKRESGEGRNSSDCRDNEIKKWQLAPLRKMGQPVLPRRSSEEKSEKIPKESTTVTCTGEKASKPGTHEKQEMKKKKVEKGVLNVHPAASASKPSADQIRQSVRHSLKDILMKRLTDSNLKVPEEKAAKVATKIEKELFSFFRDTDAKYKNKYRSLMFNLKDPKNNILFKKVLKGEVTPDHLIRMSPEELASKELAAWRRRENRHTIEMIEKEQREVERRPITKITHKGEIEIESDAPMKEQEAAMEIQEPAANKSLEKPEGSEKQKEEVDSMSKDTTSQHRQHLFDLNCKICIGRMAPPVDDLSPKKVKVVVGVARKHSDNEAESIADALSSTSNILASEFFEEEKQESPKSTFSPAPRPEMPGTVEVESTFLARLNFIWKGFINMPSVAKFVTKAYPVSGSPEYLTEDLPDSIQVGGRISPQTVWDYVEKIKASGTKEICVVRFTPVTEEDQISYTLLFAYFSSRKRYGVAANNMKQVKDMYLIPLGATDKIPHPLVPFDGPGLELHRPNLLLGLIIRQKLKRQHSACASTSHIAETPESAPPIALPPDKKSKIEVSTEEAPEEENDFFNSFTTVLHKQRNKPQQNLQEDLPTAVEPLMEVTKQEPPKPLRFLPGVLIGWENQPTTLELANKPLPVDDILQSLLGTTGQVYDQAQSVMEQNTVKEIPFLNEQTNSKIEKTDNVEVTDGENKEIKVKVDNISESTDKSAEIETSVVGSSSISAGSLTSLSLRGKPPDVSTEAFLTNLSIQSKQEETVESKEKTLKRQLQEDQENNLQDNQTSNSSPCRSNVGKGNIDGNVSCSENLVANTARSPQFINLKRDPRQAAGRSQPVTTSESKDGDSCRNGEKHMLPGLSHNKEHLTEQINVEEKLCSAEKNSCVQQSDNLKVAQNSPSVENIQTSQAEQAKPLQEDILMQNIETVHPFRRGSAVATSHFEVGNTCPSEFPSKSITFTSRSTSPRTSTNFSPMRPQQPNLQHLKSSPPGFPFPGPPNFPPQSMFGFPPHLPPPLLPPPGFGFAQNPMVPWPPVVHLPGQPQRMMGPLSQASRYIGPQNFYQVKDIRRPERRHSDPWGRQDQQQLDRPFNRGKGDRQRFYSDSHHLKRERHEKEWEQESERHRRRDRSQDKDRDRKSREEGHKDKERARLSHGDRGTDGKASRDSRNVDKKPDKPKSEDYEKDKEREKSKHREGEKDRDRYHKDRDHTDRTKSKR

Compound: Nc1ncnc2c1ncn2[C@@H]1O[C@H](COP(=O)(O)OP(=O)(O)NP(=O)(O)O)[C@@H](O)[C@H]1O [adenylyl imidodiphosphate]
Assay: NP40-soluble protein abundance relative to vehicle (solubility fold change) (ratio); higher = more soluble protein in presence of AMP-PNP
Outline: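 Jurkat crude lysate prepared with a Dounce homogeniser was treated at eight concentrations spanning 0.1 to 10 mM, 10 min at room temperature then 3 min at 37 °C. Solubilisation with 0.8% NP40 and benzonase and ultracentrifugation preceded TMT labelling of the supernatant for LC-MS/MS. Fold change against the detergent-processed vehicle was determined per replicate from vsn-normalised intensities, across three independent experiments.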

Target	NP40-soluble protein abundance (concentration: 1mM)	NP40-soluble protein abundance (concentration: 2mM)	NP40-soluble protein abundance (concentration: 4mM)	NP40-soluble protein abundance (concentration: 6mM)	NP40-soluble protein abundance (concentration: 8mM)	NP40-soluble protein abundance (concentration: 10mM)
SCCPDH (UniProt Q8NBX0)	0.967 ± 0.03	0.887 ± 0.12	0.936 ± 0.04	0.952 ± 0.018	0.955 ± 0.024	0.9433 ± 0.0093
UniProt Q8NDV3-2|Q8NDV3-3	0.953 ± 0.039	0.942 ± 0.011	0.928 ± 0.015	0.977 ± 0.0022	0.945 ± 0.025	0.944 ± 0.033
PNPT1 (UniProt Q8TCS8)	0.988 ± 0.021	0.93 ± 0.054	0.947 ± 0.016	0.954 ± 0.019	0.953 ± 0.021	0.922 ± 0.023
UniProt Q8WU76 and related entries	0.941 ± 0.035	0.881 ± 0.092	0.911 ± 0.038	0.878 ± 0.091	0.877 ± 0.085	0.89 ± 0.1
PHIP (UniProt Q8WWQ0)	1.03 ± 0.019	1.05 ± 0.016	1.05 ± 0.061	1.06 ± 0.075	1.04 ± 0.034	1.06 ± 0.077
UniProt Q92734 and related entries	0.991 ± 0.011	1.06 ± 0.055	1.01 ± 0.012	1.01 ± 0.02	0.965 ± 0.02	1.02 ± 0.011
LEMD2 (UniProt Q8NC56)	1.083 ± 0.0047	1.15 ± 0.07	1.15 ± 0.05	1.19 ± 0.072	1.23 ± 0.071	1.27 ± 0.052
UniProt Q8TD16 and related entries	1.032 ± 0.0098	1.06 ± 0.051	1.05 ± 0.035	0.999 ± 0.011	0.967 ± 0.01	0.972 ± 0.033
PCNP (UniProt Q8WW12)	1.05 ± 0.03	1.26 ± 0.27	1.1 ± 0.076	1.18 ± 0.056	1.17 ± 0.044	1.23 ± 0.08
TMEM263 (UniProt Q8WUH6)	0.972 ± 0.026	1.01 ± 0.098	0.999 ± 0.059	1.07 ± 0.077	1.06 ± 0.056	1.09 ± 0.018
LEO1 (UniProt Q8WVC0)	1.025 ± 0.006	1.04 ± 0.062	1.01 ± 0.029	1.02 ± 0.03	0.997 ± 0.016	1.02 ± 0.024
UniProt Q8NEZ5 and related entries	0.99 ± 0.02	0.901 ± 0.082	0.99 ± 0.023	1 ± 0.04	1.06 ± 0.025	1.01 ± 0.025
UniProt Q8NI08 and related entries	0.968 ± 0.027	1.009 ± 0.0066	0.97 ± 0.03	0.946 ± 0.019	0.922 ± 0.034	0.968 ± 0.026
UniProt Q8WXH0 and related entries	1.008 ± 0.004	1.01 ± 0.015	0.984 ± 0.015	0.941 ± 0.013	0.906 ± 0.026	0.919 ± 0.018
NUBPL (UniProt Q8TB37)	1 ± 0.045	1.01 ± 0.057	1.02 ± 0.05	1.06 ± 0.092	1.03 ± 0.092	1.05 ± 0.076
UniProt Q8NHV4 and related entries	1.01 ± 0.018	1.024 ± 0.0074	1.02 ± 0.034	1.02 ± 0.029	1.01 ± 0.027	1.05 ± 0.015
RAB2B (UniProt Q8WUD1)	1.02 ± 0.076	0.994 ± 0.055	1.04 ± 0.07	0.963 ± 0.056	1.01 ± 0.053	0.986 ± 0.066
RNF169 (UniProt Q8NCN4)	1.03 ± 0.018	1.08 ± 0.061	1.08 ± 0.047	1.11 ± 0.054	1.09 ± 0.056	1.2 ± 0.062
UniProt Q8WUW1 and related entries	0.925 ± 0.049	0.937 ± 0.068	0.89 ± 0.043	0.8947 ± 0.0013	0.905 ± 0.052	0.892 ± 0.035
GTF3C2 (UniProt Q8WUA4)	0.965 ± 0.025	0.993 ± 0.083	0.964 ± 0.094	1 ± 0.061	0.982 ± 0.052	1.03 ± 0.059
UniProt Q8NDZ4 and related entries	1 ± 0.023	1 ± 0.035	1.01 ± 0.036	1.004 ± 0.0046	1.03 ± 0.015	1.04 ± 0.032
UniProt Q8WZA0 and related entries	0.969 ± 0.052	0.957 ± 0.0098	0.928 ± 0.059	0.912 ± 0.044	0.921 ± 0.034	0.859 ± 0.054
UniProt Q8TCZ2 and related entries	0.955 ± 0.057	0.952 ± 0.018	0.921 ± 0.024	0.945 ± 0.043	0.943 ± 0.035	0.951 ± 0.045
UniProt Q8NFC6	1.04 ± 0.046	1.09 ± 0.045	1.04 ± 0.057	1 ± 0.032	0.978 ± 0.046	0.992 ± 0.038
UniProt Q8WVD3 and related entries	0.98104 ± 7.6e-05	1.03 ± 0.034	1.01 ± 0.035	1.03 ± 0.035	1.011 ± 0.0067	1.02 ± 0.053
UniProt Q8WV93	0.971 ± 0.12	0.943 ± 0.13	0.993 ± 0.18	1.05 ± 0.17	1.08 ± 0.25	1.09 ± 0.16
UniProt Q92576 and related entries	1.046 ± 0.0099	1.09 ± 0.048	1.08 ± 0.008	1.08 ± 0.07	1.09 ± 0.04	1.11 ± 0.046
MRPS31 (UniProt Q92665)	1.01 ± 0.091	1.02 ± 0.047	1.03 ± 0.11	1 ± 0.1	1.02 ± 0.12	1.03 ± 0.16
UniProt Q8WZA9	1.03 ± 0.023	1.08 ± 0.07	1.04 ± 0.059	0.988 ± 0.028	0.981 ± 0.021	0.989 ± 0.067
DTD1 (UniProt Q8TEA8)	1.02 ± 0.027	1.04 ± 0.11	1.02 ± 0.038	1.01 ± 0.06	1.01 ± 0.059	1.04 ± 0.054

A second format for some results above.
Target,NP40-soluble protein abundance (concentration: 1mM),NP40-soluble protein abundance (concentration: 2mM),NP40-soluble protein abundance (concentration: 4mM),NP40-soluble protein abundance (concentration: 6mM),NP40-soluble protein abundance (concentration: 8mM),NP40-soluble protein abundance (concentration: 10mM)
GTF3C2 (UniProt Q8WUA4),0.965 ± 0.025,0.993 ± 0.083,0.964 ± 0.094,1 ± 0.061,0.982 ± 0.052,1.03 ± 0.059
UniProt Q8NDZ4 and related entries,1 ± 0.023,1 ± 0.035,1.01 ± 0.036,1.004 ± 0.0046,1.03 ± 0.015,1.04 ± 0.032
UniProt Q8WZA0 and related entries,0.969 ± 0.052,0.957 ± 0.0098,0.928 ± 0.059,0.912 ± 0.044,0.921 ± 0.034,0.859 ± 0.054
UniProt Q8TCZ2 and related entries,0.955 ± 0.057,0.952 ± 0.018,0.921 ± 0.024,0.945 ± 0.043,0.943 ± 0.035,0.951 ± 0.045
UniProt Q8NFC6,1.04 ± 0.046,1.09 ± 0.045,1.04 ± 0.057,1 ± 0.032,0.978 ± 0.046,0.992 ± 0.038
UniProt Q8WVD3 and related entries,0.98104 ± 7.6e-05,1.03 ± 0.034,1.01 ± 0.035,1.03 ± 0.035,1.011 ± 0.0067,1.02 ± 0.053
UniProt Q8WV93,0.971 ± 0.12,0.943 ± 0.13,0.993 ± 0.18,1.05 ± 0.17,1.08 ± 0.25,1.09 ± 0.16
UniProt Q92576 and related entries,1.046 ± 0.0099,1.09 ± 0.048,1.08 ± 0.008,1.08 ± 0.07,1.09 ± 0.04,1.11 ± 0.046
